{"source": "patent US12054746B2", "about": "“Method for inducing differentiation of pluripotent stem cells into intestinal epithelial cells” (PUBLIC UNIVERSITY CORPORATION NAGOYA CITY UNIVERSITY, priority 2018, dated 2024)", "key": {"[1]": {"settings": "in humans, from References 1 to 6; cited from earlier work"}, "in vitro [2]": {"assay": "in vitro", "settings": "human", "experimental": "Human iPS cells (FF-1) were treated with a serum-free medium containing 100 ng/mL activin A for 24 hours to initiate differentiation. […] Thereafter, the cells were cultured in Advanced DMEM/F-12 containing 2% FBS, 1% GlutaMax, 100 units/mL penicillin G, 100 μg/mL streptomycin sulfate, and 250 ng/mL FGF2 for 96 hours to differentiate into small intestine stem cells. The small intestine stem cell-like cells after the treatment with activin A and FGF2 were detached with Aecutase and seeded on GFR Matrigel which was diluted 30-fold with human iPS medium in advance. After seeding, the cells were cultured for 19 to 23 days in Advanced DMEM/F-12 containing 2% FBS, 0.1 mM NEAA, 2 mM L-Glu, 100 units/mL penicillin G, 100 μg/mL streptomycin sulfate, 2% B27 supplement, 1% N2 supplement, 1% HepExtend supplement, 20 ng/mL EGF, and 30 μM Forskolin. From 12 to 16 days before the end of differentiation, differentiation into small intestinal epithelial cells was induced was by adding PD98059 to 20 μM, 5-aza-2′-deoxycytidine (5-aza-2′-dC) to 5 μM, and A-83-01 to 0.5 μM.\nHESS (pH 6.5) was added to a chamber on the apical side of human iPS cell-derived small intestinal epithelial cells and Caco-2 cells seeded on Cell culture insert, HBSS (pH 7.4) was added to a chamber on the basal side, and pre-incubated at 37° C. for 60 minutes. […] The unchanged substance was measured using UPLC-MS/MS. […]"}, "in vitro [3]": {"assay": "in vitro", "settings": "human, Caco-2", "experimental": "HESS (pH 6.5) was added to a chamber on the apical side of human iPS cell-derived small intestinal epithelial cells and Caco-2 cells seeded on Cell culture insert, HBSS (pH 7.4) was added to a chamber on the basal side, and pre-incubated at 37° C. for 60 minutes. […] A sample was collected from the receiver chamber every 15 minutes. The unchanged substance was measured using UPLC-MS/MS. Fa·Fg in humans was referred from, previous reports (References 1 to 6 below). • Reference 1: Takenaka T, Harada N, Kuze J, Chiba M, Iwao T, Matsunaga T. Human small intestinal epithelial cells differentiated from adult intestinal stem cells as a novel system for predicting oral drug absorption in humans. Drug Metab Dispos. […] Expert Opin Drug Metab Toxicol."}}, "data": [{"molecule": "CC1=C(C(=O)O)N2C(=O)[C@@H](NC(=O)[C@H](N)c3ccccc3)[C@H]2SC1", "note": "[Cephalexin, cephalexin]", "values": [{"measurement": "Fa · Fg/100", "setting": "[1]", "value": 0.96}, {"measurement": "Papp A→B at 60 min", "setting": "in vitro [2]", "value": 2.36, "unit": "×10⁻⁶ cm/s"}, {"measurement": "Papp A→B at 60 min", "setting": "in vitro [3]", "value": 0.23, "unit": "×10⁻⁶ cm/s"}]}]}
